Experimental data as given in publication PMC6527379.
These are yes or no findings as the source states them, for the method shown. In cells and extracts the contact can be indirect. Some results given as binding are weak or reduced against the parent protein; the word gives no strength.

Chains of the proteins cited; added tags and fusions are not shown. Lines headed by an entry give the natural chain unless they say otherwise; changes in a name come on top.
UniProt P35222: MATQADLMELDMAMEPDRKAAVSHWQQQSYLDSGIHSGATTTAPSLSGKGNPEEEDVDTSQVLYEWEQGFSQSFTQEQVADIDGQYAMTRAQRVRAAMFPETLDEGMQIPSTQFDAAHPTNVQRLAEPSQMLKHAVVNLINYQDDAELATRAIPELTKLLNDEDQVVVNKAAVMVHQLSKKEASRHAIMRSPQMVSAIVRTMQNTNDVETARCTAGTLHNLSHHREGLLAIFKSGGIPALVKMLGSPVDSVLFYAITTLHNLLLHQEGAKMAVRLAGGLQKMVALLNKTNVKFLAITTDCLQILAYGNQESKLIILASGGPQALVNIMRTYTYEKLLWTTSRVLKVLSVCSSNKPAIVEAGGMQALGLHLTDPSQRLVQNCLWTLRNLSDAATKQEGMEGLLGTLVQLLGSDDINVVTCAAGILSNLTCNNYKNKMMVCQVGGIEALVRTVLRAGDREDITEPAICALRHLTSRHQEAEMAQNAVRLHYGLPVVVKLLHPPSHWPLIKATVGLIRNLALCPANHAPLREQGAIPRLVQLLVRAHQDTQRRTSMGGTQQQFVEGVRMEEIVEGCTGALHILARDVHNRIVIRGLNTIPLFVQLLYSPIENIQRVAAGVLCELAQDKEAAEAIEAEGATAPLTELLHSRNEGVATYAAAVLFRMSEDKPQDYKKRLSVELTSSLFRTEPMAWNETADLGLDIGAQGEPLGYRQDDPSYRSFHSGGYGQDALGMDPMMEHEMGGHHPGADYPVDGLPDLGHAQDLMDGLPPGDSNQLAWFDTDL

Biological target: β-catenin (human (endogenous in T47D)) (UniProt P35222)
Test: co-IP; endogenous proteins of T47D cells lysed in RIPA buffer; ~2 mg lysate with 2 ug anti-E-cadherin or anti-β-catenin antibody overnight at 4°C, protein A/G agarose beads, western blot; cells with or without EGTA (4 mM), Ca2+ (1.8 mM) added after EGTA; irrelevant IgG as negative control

- binding: binds
B1: Small G protein signalling modulator 2 (SGSM2) (protein, UniProt O43147 1-1006)
chain: MGSAEDAVKEKLLWNVKKEVKQIMEEAVTRKFVHEDSSHIIALCGAVEACLLHQLRRRAAGFLRSDKMAALFTKVGKTCPVAGEICHKVQELQQQAEGRKPSGVSQEALRRQGSASGKAPALSPQALKHVWVRTALIEKVLDKVVQYLAENCSKYYEKEALLADPVFGPILASLLVGPCALEYTKLKTADHYWTDPSADELVQRHRIRGPPTRQDSPAKRPALGIRKRHSSGSASEDRLAACARECVESLHQNSRTRLLYGKNHVLVQPKEDMEAVPGYLSLHQSAESLTLKWTPNQLMNGTLGDSELEKSVYWDYALVVPFSQVVCIHCHQQKSGGTLVLVSQDGIQRPPLHFPQGGHLLSFLSCLENGLLPRGQLEPPLWTQQGKGKVFPKLRKRSSIRSVDMEEMGTGRATDYVFRIIYPGHRHEHNAGDMIEMQGFGPSLPAWHLEPLCSQGSSCLSCSSSSSPHATPSHCSCIPDRLPLRLLCESMKRQIVSRAFYGWLAHCRHLSTVRTHLSALVHHSVIPPDRPPGASAGLTKDVWSKYQKDKKNYKELELLRQVYYGGIEHEIRKDVWPFLLGHYKFGMSKKEMEQVDAVVAARYQQVLAEWKACEVVVRQREREAHPATRTKFSSGSSIDSHVQRLIHRDSTISNDVFISVDDLEPPEPQDPEDSRPKPEQEAGPGTPGTAVVEQQHSVEFDSPDSGLPSSRNYSVASGIQSSLDEGQSVGFEEEDGGGEEGSSGPGPAAHTLREPQDPSQEKPQAGELEAGEELAAVCAAAYTIELLDTVALNLHRIDKDVQRCDRNYWYFTPPNLERLRDVMCSYVWEHLDVGYVQGMCDLLAPLLVTLDNDQLAYSCFSHLMKRMSQNFPNGGAMDTHFANMRSLIQILDSELFELMHQNGDYTHFYFCYRWFLLDFKRELLYEDVFAVWEVIWAARHISSEHFVLFIALALVEAYREIIRDNNMDFTDIIKFFNERAEHHDAQEILRIARDLVHKVQMLIENK
